System: Mycoplasma pneumoniae
Experiment: Expected efficacy of antibiotic agents
Format: cell-based
Conditions: Gram: n/a

O=C(O)c1cn(C2CC2)c2cc(N3CCNCC3)c(F)cc2c1=O [Ciprofloxacin]
efficacy against Mycoplasma pneumoniae: yes
